In paper PMC11685440:
For at least one entry, the source does not settle the construct or the ends of the probe. For part of these data: At least one verdict rests on a figure or table, not on a statement of the authors.

Tests used:
Assay in all cases: EMSA
[1] = test system: MpARF2 DBD (Marchantia polymorpha); conditions: positive control; 20 mM HEPES pH 7.8, 50 mM KCl, 100 mM Tris pH 8.0, 2.5% glycerol, 1 mM DTT, 0.09 mg/ml herring sperm ssDNA, 20 nM Cy5-dsDNA, 4 °C 1 h, 2% agarose 0.5X TBE; recombinant protein; label: 5'-Cy5 on strand 1
[2] = test system: MBP-SmARF3 DBD (Spirogloea muscicola); conditions: titration 5-100 uM as printed, cooperative, concentration-dependent; 20 mM HEPES pH 7.8, 50 mM KCl, 100 mM Tris pH 8.0, 2.5% glycerol, 1 mM DTT, 0.09 mg/ml herring sperm ssDNA, 20 nM Cy5-dsDNA, 4 °C 1 h, 2% agarose 0.5X TBE; recombinant protein; protein details: N-terminal 6xHis-MBP; label: 5'-Cy5 on strand 1
[3] = test system: MBP-PmARF1 DBD (Penium margaritaceum); conditions: concentration series in nM; 20 mM HEPES pH 7.8, 50 mM KCl, 100 mM Tris pH 8.0, 2.5% glycerol, 1 mM DTT, 0.09 mg/ml herring sperm ssDNA, 20 nM Cy5-dsDNA, 4 °C 1 h, 2% agarose 0.5X TBE; recombinant protein; protein details: N-terminal 6xHis-MBP; label: 5'-Cy5 on strand 1

Measured: binding result

GATACACGCTTGTCGGCCAAAGGCCGACAACCACTCA (double strand) [IR7]
binds: [1] | [2] | [3]
